# Measured values from publication PMC8877285.
# T1: flavin-containing monooxygenase 3 (FMO3) (mouse (endogenous in mouse liver)) (UniProt P97501)
# T1 sequence: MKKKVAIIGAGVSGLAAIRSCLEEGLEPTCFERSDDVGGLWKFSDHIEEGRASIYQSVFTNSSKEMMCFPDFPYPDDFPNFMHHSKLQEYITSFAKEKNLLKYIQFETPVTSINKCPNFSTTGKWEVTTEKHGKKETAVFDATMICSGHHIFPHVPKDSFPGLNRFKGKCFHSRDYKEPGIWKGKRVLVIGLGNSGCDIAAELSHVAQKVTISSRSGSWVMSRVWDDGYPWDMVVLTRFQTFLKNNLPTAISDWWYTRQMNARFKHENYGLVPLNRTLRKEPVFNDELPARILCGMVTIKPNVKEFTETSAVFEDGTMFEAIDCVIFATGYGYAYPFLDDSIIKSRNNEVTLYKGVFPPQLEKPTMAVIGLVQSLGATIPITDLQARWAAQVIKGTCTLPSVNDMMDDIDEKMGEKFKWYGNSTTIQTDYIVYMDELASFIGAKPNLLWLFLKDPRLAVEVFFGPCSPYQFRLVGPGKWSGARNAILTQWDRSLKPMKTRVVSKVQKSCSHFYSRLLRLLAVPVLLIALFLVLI
# Molecular target: T1, flavin-containing monooxygenase 3 (FMO3) (mouse (endogenous in mouse liver))
# Experiment: affinity purification with mass spectrometry; mouse liver extracts (vehicle or PCB-126-treated mice) in TBS (25 mM Tris pH 7.4, 150 mM NaCl, 1% NP-40, 5% glycerol, protease inhibitors), immunoprecipitated overnight at 4 °C with anti-FMO3 (Abnova) on protein A/G agarose; normal IgG IP as control; LC-MS/MS of the tryptic digest
row,Binder,binding
1,"CYP1A2 (protein, UniProt P00186 1-513) MAFSQYISLAPELLLATAIFCLVFWMVRASRTQVPKGLKNPPGPWGLPFIGHMLTVGKNPHLSLTRLSQQYGDVLQIRIGSTPVVVLSGLNTIKQALVRQGDDFKGRPDLYSFTLITNGKSMTFNPDSGPVWAARRRLAQDALKSFSIASDPTSASSCYLEEHVSKEANHLVSKLQKAMAEVGHFEPVSQVVESVANVIGAMCFGKNFPRKSEEMLNIVNNSKDFVENVTSGNAVDFFPVLRYLPNPALKRFKTFNDNFVLFLQKTVQEHYQDFNKNSIQDITSALFKHSENYKDNGGLIPEEKIVNIVNDIFGAGFDTVTTAITWSILLLVTWPNVQRKIHEELDTVVGRDRQPRLSDRPQLPYLEAFILEIYRYTSFVPFTIPHSTTRDTSLNGFHIPKERCIYINQWQVNHDEKQWKDPFVFRPERFLTNNNSAIDKTQSEKVMLFGLGKRRCIGEIPAKWEVFLFLAILLQHLEFSVPPGVKVDLTPNYGLTMKPGTCEHVQAWPRFSK",binds
2,"PCCA (protein, UniProt Q91ZA3 49-724) SVEYEPKEKTFDKILIANRGEIACRVIKTCKKMGIKTVAIHSDVDASSVHVKMADEAVCVGPAPTSKSYLNMDAIMEAIKKTRAQAVHPGYGFLSENKEFAKRLAAEDVTFIGPDTHAIQAMGDKIESKLLAKRAKVNTIPGFDGVVKDADEAVRIAREIGYPVMIKASAGGGGKGMRIAWDDEETRDGFRFSSQEAASSFGDDRLLIEKFIDNPRHIEIQVLGDKHGNALWLNERECSIQRRNQKVVEEAPSIFLDPETRQAMGEQAVALAKAVKYSSAGTVEFLVDSQKNFYFLEMNTRLQVEHPVTECITGLDLVQEMILVAKGYPLRHKQEDIPISGWAVECRVYAEDPYKSFGLPSIGRLSQYQEPIHLPGVRVDSGIQPGSDISIYYDPMISKLVTYGSDRAEALKRMEDALDNYVIRGVTHNIPLLREVIINTRFVKGDISTKFLSDVYPDGFKGHTLTLSERNQLLAIASSVFVASQLRAQRFQEHSRVPVIRPDVAKWELSVKLHDEDHTVVASNNGPAFTVEVDGSKLNVTSTWNLASPLLSVNVDGTQRTVQCLSREAGGNMSIQFLGTVYKVHILTKLAAELNKFMLEKVPKDTSSTLCSPMPGVVVAVSVKPGDMVAEGQEICVIEAMKMQNSMTAGKMGKVKLVHCKAGDTVGEGDLLVELE",binds
3,"FMO5 (protein, UniProt P97872 1-533) MAKKRIAVIGAGASGLTCIKCCLEEGLEPVCFERSGDIGGLWRFQEAPEEGRASIYQSVVINTSKEMMCFSDYPIPDHYPNYMHNSQVLEYFRMYAKEFDLLKYIQFKTTVCSVKKQPDFSTSGQWQVVTECEGKQQVDVFDGVLVCTGHHTDAHLPLESFPGIEKFKGKYFHSRDYKNPVEFTGKRVIVIGIGNSGGDLAVEISHTAKQVFLSTRRGAWILNRVGKHGYPIDLLLSSRIMYYLSRICGPSLKNNYMEKQMNQRFDHEMFGLKPKHRALSQHPTVNDDLPNRIIAGLVKVKGNVKEFTETAAVFEDGSREDGIDVVIFATGYSFAFPFLEDSVKVVKNKVSLYKKVFPPNLEKPTLAIIGLIQPLGAIMPISELQGRWATQVFKGLKKLPSQSEMMAEINKAREEMAKRYVDSQRHTIQGDYIDTMEEIADLVGVRPNILPLVFTDPRLALRLLLGPCTPVQYRLQGPGKWAGARKTILTTEDRVRKPLMTRVVERDSSGGSLVTVRVLMLAVAFFAVILAYF",binds
4,"KRT10 (protein, UniProt P02535 1-570) MSVLYSSSSKQFSSSRSGGGGGGGSVRVSSTRGSLGGGYSSGGFSGGSFSRGSSGGGCFGGSSGGYGGFGGGGSFGGGYGGSSFGGGYGGSSFGGGYGGSSFGGAGFGGGGSFGGGSFGGGSYGGGFGGGGFGGDGGSLLSGNGRVTMQNLNDRLASYMDKVRALEESNYELEGKIKEWYEKHGNSSQREPRDYSKYYKTIEDLKGQILTLTTDNANVLLQIDNARLAADDFRLKYENEVTLRQSVEADINGLRRVLDELTLSKSDLEMQIESLNEELAYLKKNHEEEMRDLQNVSTGDVNVEMNAAPGVDLTQLLNNMRNQYEQLAEKNRKDAEEWFNQKSKELTTEIDSNIEQMSSHKSEITELRRTVQGLEIELQSQLALKQSLEASLAETEGRYCVQLSQIQSQISALEEQLQQIRAETECQNAEYQQLLDIKTRLENEIQTYRSLLEGEGSSSGGGGGRRGGSGGGSYGGSSGGGSYGGSSGGGGSYGGSSGGGGSYGGGSSGGGSHGGSSGGGYGGGSSSGGAGGHGGSSGGGYGGGSSSGGQGGSGGFKSSGGGDQSSKGPRY",binds

# Further lines, results first:
row,binding,Binder
1,binds,"PRDX1 (protein, UniProt P35700 1-199) MSSGNAKIGYPAPNFKATAVMPDGQFKDISLSEYKGKYVVFFFYPLDFTFVCPTEIIAFSDRADEFKKLNCQVIGASVDSHFCHLAWINTPKKQGGLGPMNIPLISDPKRTIAQDYGVLKADEGISFRGLFIIDDKGILRQITINDLPVGRSVDEIIRLVQAFQFTDKHGEVCPAGWKPGSDTIKPDVNKSKEYFSKQK"
2,binds,"ornithine transcarbamylase (OTC) (protein, UniProt P11725 33-354) SQVQLKGRDLLTLKNFTGEEIQYMLWLSADLKFRIKQKGEYLPLLQGKSLGMIFEKRSTRTRLSTETGFALLGGHPSFLTTQDIHLGVNESLTDTARVLSSMTDAVLARVYKQSDLDTLAKEASIPIVNGLSDLYHPIQILADYLTLQEHYGSLKGLTLSWIGDGNNILHSIMMSAAKFGMHLQAATPKGYEPDPNIVKLAEQYAKENGTKLSMTNDPLEAARGGNVLITDTWISMGQEDEKKKRLQAFQGYQVTMKTAKVAASDWTFLHCLPRKPEEVDDEVFYSPRSLVFPEAENRKWTIMAVMVSLLTDYSPVLQKPKF"
3,binds,"SUCLG2 (protein, UniProt Q9Z2I8 39-433) LNLQEYQSKKLMSEHGVRVQRFFVANTAKEALEAAKRLNAKEIVLKAQILAGGRGKGVFNSGLKGGVHLTKDPKVVGELAQQMIGYNLATKQTPKEGVKVNKVMVAEALDISRETYLAILMDRSHNGPVIVGSPQGGVDIEEVAASSPELIFKEQIDIFEGIKDSQAQRMAENLGFLGSLKNQAADQITKLYHLFLKIDATQVEVNPFGETPEGQVVCFDAKINFDDNAEFRQKDIFAMDDKSENEPIENEAARYDLKYIGLDGNIACFVNGAGLAMATCDIIFLNGGKPANFLDLGGGVKEAQVYEAFKLLTSDPKVEAILVNIFGGIVNCAIIANGITKACRELELKVPLVVRLEGTNVQEAQNILKSSGLPITSAVDLEDAAKKAVASVAKK"
4,binds,"TRIM21 (protein, UniProt Q62191 1-470) MSPSTTSKMSLEKMWEEVTCSICLDPMVEPMSIECGHCFCKECIFEVGKNGGSSCPECRQQFLLRNLRPNRHIANMVENLKQIAQNTKKSTQETHCMKHGEKLHLFCEEDGQALCWVCAQSGKHRDHTRVPIEEAAKVYQEKIHVVLEKLRKGKELAEKMEMDLTMQRTDWKRNIDTQKSRIHAEFALQNSLLAQEEQRQLQRLEKDQREYLRLLGKKEAELAEKNQALQELISELERRIRGSELELLQEVRIILERSGSWNLDTLDIDAPDLTSTCPVPGRKKMLRTCWVHITLDRNTANSWLIISKDRRQVRMGDTHQNVSDNKERFSNYPMVLGAQRFSSGKMYWEVDVTQKEAWDLGVCRDSVQRKGQFSLSPENGFWTIWLWQDSYEAGTSPQTTLHIQVPPCQIGIFVDYEAGVVSFYNITDHGSLIYTFSECVFAGPLRPFFNVGFNYSGGNAAPLKLCPLKM"
5,binds,"dihydrolipoamide S-succinyltransferase (Dlst) (protein, UniProt Q9D2G2 69-454) NDVITVQTPAFAESVTEGDVRWEKAVGDAVAEDEVVCEIETDKTSVQVPSPANGIIEALLVPDGGKVEGGTPLFTLRKTGAAPAKAKPAETPAPAHKAEPAAPAAPPPPAAPVLTQMPPVPSPSQPPSSKPVSAIKPTAAPPLAEAGAAKGLRSEHREKMNRMRQRIAQRLKEAQNTCAMLTTFNEVDMSNIQEMRARHKDAFLKKHNLKLGFMSAFVKASAFALQEQPVVNAVIDDATKEVVYRDYIDISVAVATPRGLVVPVIRNVETMNYADIERTINELGEKARKNELAIEDMDGGTFTISNGGVFGSLFGTPIINPPQSAILGMHAIFDRPVAVGGKVEVRPMMYVALTYDHRLIDGREAVTFLRKIKAAVEDPRVLLLDL"

# These are yes or no findings as the source states them, for the method shown. In cells and extracts the contact can be indirect. These calls come from enrichment with a bait or labelling near it, and not all partners need be listed.
